Tested on: C57BL/KsJdb/db mice
Assay: Hypoglycemic effect of single or combined administration in db/db mice (plasma glucose on day 14)
Type: in vivo, mouse
Experimental: As test animals, C57BL/KsJdb/db mice were used, which were created in Jackson Laboratory (USA) and known as an obesity, hyperlipemia, hyperinsulinemia, and insulin-resistant model (Journal of Clinical Investigation, 85, pp 962-967, 1990). Blood was collected from the orbital venous plexus of each 7-week-old db/db mouse using a heparin-treated capillary tube, and centrifugation was performed to collect plasma. Thereafter, the plasma glucose concentration (Glucose CII-Test Wako (Wako Pure Chemical Industries, Ltd.)), the insulin concentration (Lebis Insulin Kit: for mouse-T (SHIBAYAGI)), and the triglyceride concentration (Triglyceride E-Test Wako (Wako Pure Chemical Industries, Ltd.)) were measured for classification. The classification was performed so that distribution of each measurement item is uniform for each group by block allocation based on many variables in which the plasma glucose concentration is most emphasized using the measured values of the plasma glucose concentration, the body weight, the insulin concentration, and the triglyceride concentration. […] Two hours after the administration of the medicines on the 14th day from the beginning day of the administration, blood was collected from the orbital venous plexus, and the plasma thereof was collected to measure the plasma glucose concentration. […] Each plasma glucose concentration is expressed as mean±standard deviation for 6 mice of each group. Each decreasing rate is calculated from ((mean of plasma glucose concentration of control group)−(mean of plasma glucose concentration of each group))/(mean of plasma glucose concentration of control group)×100, while each relative index is calculated from (mean of plasma glucose concentration of each group)/(mean of plasma glucose concentration of control group).

## CN(C)C(=N)NC(=N)N.Cl [Metformin, 1,1-Dimethylbiguanide hydrochloride]
300 mg/kg oral once a day for 14 days, mean plasma glucose of group / control group
  Relative index: 0.97
300 mg/kg oral once a day for 14 days, plasma 2 h after dosing on day 14, mean ± SD, 6 mice
  Plasma glucose concentration: 264 ± 110 mg/dL
Single administration 300 mg/kg, 14 days, compared with normal db/+m mouse level (187±16)
  Decreasing effect for the plasma glucose concentration (in words): insufficient
